This note sets out measurements from paper PMC9238395, “Identification and Tetramer Structure of Hemin-Binding Protein SPD_0310 Linked to Iron Homeostasis and Virulence of Streptococcus pneumoniae” (mSystems, 2022).

Sequences of proteins named here, by UniProt entry; tags and fusion partners are left off. A change or cut given only in a name is not applied to a line headed by its entry.
UniProt A0A0H2ZP24: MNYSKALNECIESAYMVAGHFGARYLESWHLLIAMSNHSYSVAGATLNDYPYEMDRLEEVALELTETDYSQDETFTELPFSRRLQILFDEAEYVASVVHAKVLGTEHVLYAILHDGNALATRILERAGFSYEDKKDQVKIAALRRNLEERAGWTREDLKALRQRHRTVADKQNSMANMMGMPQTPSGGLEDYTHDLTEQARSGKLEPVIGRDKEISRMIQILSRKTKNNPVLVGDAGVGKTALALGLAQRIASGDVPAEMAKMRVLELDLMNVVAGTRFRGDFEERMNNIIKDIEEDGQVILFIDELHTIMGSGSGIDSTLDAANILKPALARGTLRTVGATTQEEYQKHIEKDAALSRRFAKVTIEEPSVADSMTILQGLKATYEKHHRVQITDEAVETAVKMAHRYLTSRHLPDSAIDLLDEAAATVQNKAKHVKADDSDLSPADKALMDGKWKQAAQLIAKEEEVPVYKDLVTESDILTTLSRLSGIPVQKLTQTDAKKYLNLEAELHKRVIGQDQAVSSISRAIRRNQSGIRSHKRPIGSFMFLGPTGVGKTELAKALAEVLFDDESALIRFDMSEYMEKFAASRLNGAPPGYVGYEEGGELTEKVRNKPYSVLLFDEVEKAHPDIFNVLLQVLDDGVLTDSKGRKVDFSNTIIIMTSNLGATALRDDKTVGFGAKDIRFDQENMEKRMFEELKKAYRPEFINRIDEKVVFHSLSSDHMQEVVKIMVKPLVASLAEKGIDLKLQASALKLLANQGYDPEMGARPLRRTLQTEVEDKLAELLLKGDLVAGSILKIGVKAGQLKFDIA
UniProt A0A0H2ZLV6: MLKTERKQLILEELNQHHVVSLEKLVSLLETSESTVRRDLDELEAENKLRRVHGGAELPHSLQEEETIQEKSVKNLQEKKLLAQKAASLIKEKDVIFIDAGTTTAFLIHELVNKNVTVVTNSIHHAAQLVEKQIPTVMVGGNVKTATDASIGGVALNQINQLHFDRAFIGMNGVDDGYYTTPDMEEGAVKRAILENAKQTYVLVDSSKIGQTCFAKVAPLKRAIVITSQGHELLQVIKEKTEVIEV
UniProt A0A0H2ZL87: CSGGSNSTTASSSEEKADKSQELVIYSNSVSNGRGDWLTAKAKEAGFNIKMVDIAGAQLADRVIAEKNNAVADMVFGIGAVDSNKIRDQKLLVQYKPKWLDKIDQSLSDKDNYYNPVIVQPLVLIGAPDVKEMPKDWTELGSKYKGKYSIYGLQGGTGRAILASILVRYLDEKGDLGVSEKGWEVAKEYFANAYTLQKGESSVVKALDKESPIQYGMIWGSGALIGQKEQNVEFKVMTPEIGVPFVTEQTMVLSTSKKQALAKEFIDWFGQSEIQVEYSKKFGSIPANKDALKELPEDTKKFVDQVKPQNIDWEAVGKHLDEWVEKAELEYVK
UniProt A0A0H2ZRM2: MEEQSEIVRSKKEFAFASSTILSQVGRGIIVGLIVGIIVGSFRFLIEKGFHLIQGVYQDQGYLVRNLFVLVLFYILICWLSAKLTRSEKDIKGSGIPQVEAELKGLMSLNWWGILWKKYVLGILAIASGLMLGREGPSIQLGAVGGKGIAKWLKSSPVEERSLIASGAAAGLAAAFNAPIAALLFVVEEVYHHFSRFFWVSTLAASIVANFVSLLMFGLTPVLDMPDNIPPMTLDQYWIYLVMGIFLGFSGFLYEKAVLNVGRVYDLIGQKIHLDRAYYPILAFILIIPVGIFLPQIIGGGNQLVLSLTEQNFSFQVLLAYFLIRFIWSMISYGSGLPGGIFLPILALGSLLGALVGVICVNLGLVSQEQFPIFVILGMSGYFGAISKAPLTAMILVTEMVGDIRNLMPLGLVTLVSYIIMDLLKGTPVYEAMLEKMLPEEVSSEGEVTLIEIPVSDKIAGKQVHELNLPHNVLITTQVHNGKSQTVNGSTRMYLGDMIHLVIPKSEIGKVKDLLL
UniProt A0A0H2ZPQ6: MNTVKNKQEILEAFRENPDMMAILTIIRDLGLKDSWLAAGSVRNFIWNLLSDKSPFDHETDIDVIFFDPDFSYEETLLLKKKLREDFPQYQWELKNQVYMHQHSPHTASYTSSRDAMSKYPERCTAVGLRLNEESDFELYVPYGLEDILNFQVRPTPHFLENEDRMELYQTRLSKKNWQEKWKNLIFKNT
UniProt A0A0H2ZPT1: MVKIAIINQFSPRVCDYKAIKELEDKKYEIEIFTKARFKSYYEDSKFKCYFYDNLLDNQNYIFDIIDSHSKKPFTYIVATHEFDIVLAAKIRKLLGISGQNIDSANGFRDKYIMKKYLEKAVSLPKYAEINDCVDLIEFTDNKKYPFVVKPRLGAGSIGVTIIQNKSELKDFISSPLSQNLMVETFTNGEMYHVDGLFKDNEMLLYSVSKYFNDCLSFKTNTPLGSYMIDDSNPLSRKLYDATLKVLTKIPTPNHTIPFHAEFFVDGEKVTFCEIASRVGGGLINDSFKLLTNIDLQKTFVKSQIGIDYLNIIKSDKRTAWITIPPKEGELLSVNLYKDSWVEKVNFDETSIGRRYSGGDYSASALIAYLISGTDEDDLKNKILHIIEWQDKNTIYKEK
UniProt A0A0H2ZMX7: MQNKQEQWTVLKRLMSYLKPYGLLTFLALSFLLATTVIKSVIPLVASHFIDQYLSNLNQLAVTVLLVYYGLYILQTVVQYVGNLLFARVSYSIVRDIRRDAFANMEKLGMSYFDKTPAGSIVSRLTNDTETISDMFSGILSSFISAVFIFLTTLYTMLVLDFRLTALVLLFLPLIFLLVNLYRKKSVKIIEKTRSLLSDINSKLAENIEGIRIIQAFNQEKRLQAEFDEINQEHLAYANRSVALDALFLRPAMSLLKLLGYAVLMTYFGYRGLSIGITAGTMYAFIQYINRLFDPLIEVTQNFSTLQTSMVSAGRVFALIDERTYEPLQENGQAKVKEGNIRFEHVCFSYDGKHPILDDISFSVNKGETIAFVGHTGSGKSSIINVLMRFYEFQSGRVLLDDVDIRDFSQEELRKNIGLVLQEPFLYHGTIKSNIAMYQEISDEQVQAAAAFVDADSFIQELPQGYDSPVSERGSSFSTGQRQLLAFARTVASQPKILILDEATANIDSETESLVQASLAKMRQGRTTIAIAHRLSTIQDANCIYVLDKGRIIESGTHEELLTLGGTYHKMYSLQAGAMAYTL
UniProt A0A0H2ZQ72: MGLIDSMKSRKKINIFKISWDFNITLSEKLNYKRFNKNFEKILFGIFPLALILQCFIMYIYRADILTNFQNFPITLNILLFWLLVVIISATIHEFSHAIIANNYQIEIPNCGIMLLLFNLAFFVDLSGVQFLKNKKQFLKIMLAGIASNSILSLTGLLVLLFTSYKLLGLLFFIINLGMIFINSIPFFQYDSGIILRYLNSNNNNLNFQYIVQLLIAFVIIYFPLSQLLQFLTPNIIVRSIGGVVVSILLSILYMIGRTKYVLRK
UniProt Q9ZIH6: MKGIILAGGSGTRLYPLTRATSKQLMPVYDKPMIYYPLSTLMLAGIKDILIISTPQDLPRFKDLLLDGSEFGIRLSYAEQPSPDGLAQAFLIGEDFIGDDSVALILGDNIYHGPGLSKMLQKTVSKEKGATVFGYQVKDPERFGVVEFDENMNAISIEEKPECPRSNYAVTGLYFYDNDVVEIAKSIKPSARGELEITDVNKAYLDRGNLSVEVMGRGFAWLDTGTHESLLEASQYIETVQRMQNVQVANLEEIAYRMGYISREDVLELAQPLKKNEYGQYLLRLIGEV
UniProt A0A0H2ZNT7: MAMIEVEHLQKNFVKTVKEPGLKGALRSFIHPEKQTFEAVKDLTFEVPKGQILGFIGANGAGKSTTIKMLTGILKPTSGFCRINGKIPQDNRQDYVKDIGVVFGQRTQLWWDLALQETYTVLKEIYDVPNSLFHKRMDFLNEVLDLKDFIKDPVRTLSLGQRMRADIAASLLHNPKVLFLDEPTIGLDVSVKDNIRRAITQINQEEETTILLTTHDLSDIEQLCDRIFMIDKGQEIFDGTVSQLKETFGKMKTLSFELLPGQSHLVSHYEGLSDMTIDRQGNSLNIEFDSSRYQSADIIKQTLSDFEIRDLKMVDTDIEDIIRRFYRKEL
UniProt A0A0H2ZLP9: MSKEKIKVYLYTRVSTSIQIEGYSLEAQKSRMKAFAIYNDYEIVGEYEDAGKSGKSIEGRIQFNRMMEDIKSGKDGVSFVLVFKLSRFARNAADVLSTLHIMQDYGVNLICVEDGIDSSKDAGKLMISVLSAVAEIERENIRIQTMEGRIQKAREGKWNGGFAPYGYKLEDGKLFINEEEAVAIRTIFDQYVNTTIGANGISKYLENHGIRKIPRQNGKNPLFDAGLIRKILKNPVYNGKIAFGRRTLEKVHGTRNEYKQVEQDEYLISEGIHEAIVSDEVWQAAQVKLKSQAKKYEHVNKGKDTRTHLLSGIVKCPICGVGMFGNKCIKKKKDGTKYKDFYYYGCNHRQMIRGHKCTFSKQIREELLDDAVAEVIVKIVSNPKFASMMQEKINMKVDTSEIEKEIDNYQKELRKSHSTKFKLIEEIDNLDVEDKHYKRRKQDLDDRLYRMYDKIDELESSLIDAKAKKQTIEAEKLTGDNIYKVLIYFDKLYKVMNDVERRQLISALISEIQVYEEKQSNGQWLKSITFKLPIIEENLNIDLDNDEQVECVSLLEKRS
UniProt A0A0H2ZP30: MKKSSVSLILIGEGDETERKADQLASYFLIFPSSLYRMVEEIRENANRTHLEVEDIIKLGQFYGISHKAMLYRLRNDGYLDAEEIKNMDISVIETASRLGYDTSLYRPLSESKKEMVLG
UniProt A0A0H2ZPE9: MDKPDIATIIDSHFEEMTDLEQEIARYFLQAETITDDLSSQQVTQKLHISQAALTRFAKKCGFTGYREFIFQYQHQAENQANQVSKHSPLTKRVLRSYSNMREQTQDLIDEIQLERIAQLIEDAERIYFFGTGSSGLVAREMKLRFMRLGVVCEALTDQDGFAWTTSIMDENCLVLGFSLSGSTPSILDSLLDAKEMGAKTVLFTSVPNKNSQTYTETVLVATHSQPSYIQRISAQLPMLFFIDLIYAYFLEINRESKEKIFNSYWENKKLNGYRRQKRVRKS
UniProt A0A0H2ZQK8: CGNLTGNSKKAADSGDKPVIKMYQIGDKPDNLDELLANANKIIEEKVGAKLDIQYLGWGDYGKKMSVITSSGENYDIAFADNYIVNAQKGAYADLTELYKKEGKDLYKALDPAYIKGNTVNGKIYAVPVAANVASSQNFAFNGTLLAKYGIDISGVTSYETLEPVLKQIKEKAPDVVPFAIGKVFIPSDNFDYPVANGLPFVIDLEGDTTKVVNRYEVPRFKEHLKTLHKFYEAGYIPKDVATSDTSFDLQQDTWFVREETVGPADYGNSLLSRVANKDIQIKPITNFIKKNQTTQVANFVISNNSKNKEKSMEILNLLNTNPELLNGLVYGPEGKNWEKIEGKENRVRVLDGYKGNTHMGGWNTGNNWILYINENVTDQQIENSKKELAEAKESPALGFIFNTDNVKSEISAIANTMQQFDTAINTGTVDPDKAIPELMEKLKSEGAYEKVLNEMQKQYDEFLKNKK
UniProt A0A0H2ZQ93: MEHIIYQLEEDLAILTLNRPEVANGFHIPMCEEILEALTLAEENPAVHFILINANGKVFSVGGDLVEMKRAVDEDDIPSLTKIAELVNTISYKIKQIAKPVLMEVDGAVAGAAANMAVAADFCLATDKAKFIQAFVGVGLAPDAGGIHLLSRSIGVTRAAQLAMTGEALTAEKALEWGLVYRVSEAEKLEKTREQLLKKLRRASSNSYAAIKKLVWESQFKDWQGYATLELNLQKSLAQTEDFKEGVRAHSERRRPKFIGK
UniProt A0A0H2US80: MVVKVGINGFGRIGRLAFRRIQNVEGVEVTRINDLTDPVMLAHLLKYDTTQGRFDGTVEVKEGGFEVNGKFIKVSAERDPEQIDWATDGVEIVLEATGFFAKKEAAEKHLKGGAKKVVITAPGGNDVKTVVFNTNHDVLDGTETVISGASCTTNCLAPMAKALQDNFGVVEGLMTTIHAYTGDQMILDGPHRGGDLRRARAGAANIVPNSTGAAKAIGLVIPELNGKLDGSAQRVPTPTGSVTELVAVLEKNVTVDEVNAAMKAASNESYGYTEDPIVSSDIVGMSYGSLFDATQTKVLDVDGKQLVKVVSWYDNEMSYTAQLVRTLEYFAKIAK

These are yes or no findings as the source states them, for the method shown. In cells and extracts the contact can be indirect. These calls come from enrichment with a bait or labelling near it, and not all partners need be listed. Sequences can lack the tags named with a protein.

This assay concerns the target T1, SPD_0310-GST fusion protein (S. pneumoniae D39) (UniProt Q04MC1).
T1 sequence: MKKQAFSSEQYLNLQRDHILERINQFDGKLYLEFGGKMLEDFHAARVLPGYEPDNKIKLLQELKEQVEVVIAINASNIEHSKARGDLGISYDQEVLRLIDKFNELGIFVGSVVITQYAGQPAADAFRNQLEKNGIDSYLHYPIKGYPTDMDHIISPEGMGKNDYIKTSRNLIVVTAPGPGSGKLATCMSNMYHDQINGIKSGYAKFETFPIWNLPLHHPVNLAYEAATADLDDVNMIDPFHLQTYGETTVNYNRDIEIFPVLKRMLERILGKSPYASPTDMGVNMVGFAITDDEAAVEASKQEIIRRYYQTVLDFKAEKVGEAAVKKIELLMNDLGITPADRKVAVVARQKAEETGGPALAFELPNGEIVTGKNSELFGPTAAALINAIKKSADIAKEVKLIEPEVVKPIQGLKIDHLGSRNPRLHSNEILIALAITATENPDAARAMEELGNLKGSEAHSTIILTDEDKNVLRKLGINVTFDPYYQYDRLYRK
Description: affinity purification with mass spectrometry; SPD_0310-GST (or GST as control) on GST-gel beads incubated with the whole proteins of S. pneumoniae D39 for 10 h at 4°C; washed with 1× PBS; whole lanes digested in-gel, MS; only the target purified.
In the case of GpsA, the binding entry is on record as “binds”.

As to SPD_2022 (from UniProt A0A0H2ZP24), the binding entry is reported as “binds”.

For LacR1 (from UniProt A0A0H2ZLV6 1-246), the binding result is “binds”.

Regarding SPD_1609 (from UniProt A0A0H2ZL87), the binding result is recorded as “binds”.

Take “SPD_1021 (from UniProt A0A0H2ZRM2 1-516)”: the binding result is listed as “binds”.

On to PrsA, for which the binding entry was “binds”.

In the case of “SPD_0242 (from UniProt A0A0H2ZPQ6 1-190)”, the binding result was “binds”.

As for “SPD_0948 (from UniProt A0A0H2ZPT1 1-399)”, the binding result is on record as “binds”.

On to SPD_1621 (from UniProt A0A0H2ZMX7), for which the binding result is reported as “binds”.

As for MalX, the binding entry is on record as “binds”.

For “SPD_0603 (from UniProt A0A0H2ZQ72 1-265)”, the binding entry was “binds”.

Turning to Cps2L (from UniProt Q9ZIH6 1-289), the binding result is “binds”.

In the case of ParC (from UniProt P72525 1-823), the binding entry is on record as “binds”.

“SPD_0554 (from UniProt A0A0H2ZNT7 1-330)”: the binding result was “binds”.

As for PurH, the binding entry is reported as “binds”.

As to “SPD_0921 (from UniProt A0A0H2ZLP9 1-559)”, the binding result was “binds”.

Regarding “SPD_1736 (from UniProt A0A0H2ZP30 1-119)”, the binding entry was “binds”.

As to “SPD_1487 (from UniProt A0A0H2ZPE9 1-283)”, the binding result was “binds”.

For the substance DppC, the binding result is reported as “binds”.

On to RpsH, for which the binding result was “binds”.

As for MurB, the binding entry is “binds”.

Take SPD_0090 (from UniProt A0A0H2ZQK8): the binding result is listed as “binds”.

Take “SPD_0378 (from UniProt A0A0H2ZQ93 1-261)”: the binding entry is listed as “binds”.

In the case of Gap (from UniProt A0A0H2US80 1-335), the binding entry was “binds”.

On to PfkA, for which the binding result is on record as “binds”.
